Results on one molecule are retold here after PMC10152663, “SEC14-GOLD protein PATELLIN2 binds IRON-REGULATED TRANSPORTER1 linking root iron uptake to vitamin E” (Plant Physiology, 2022).

For this experiment, the target named is T1, IRT1-GFP, green fluorescent protein-tagged IRON-REGULATED TRANSPORTER1 (Arabidopsis thaliana) (UniProt Q38856).
T1 sequence: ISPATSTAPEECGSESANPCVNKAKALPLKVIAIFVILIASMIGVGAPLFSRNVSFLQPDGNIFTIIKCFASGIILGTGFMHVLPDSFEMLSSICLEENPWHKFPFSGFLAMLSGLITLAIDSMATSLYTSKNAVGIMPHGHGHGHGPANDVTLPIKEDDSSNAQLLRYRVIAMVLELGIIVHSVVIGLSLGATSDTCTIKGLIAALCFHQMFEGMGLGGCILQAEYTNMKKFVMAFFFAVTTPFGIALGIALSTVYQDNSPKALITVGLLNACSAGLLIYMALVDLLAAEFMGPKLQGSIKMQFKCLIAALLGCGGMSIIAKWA
In words: co-IP; anti-GFP beads (ChromoTek) on protein extracts of transiently transformed N. benthamiana leaves expressing IRT1-GFP and PATL2-HA3; immunoblot. Background: A western blot detects proteins with antibodies after separation by electrophoresis.

No constants are given. Whether binding was seen depends on the method and setting. Binding seen in cells or lysates may run through a third protein. Some binding calls cover weakened binding; strength is not graded here. Where a sequence is shown, tags or fusion partners need not be part of it.

B1: PATL2-HA3, triple hemagglutinin-tagged PATELLIN2 (transient expression in N. benthamiana) (protein, UniProt Q56ZI2 1-683)
chain: MAQEEIQKPTASVPVVKEETPAPVKEVEVPVTTEKAVAAPAPEATEEKVVSEVAVPETEVTAVKEEEVATGKEILQSESFKEEGYLASELQEAEKNALAELKELVREALNKREFTAPPPPPAPVKEEKVEEKKTEETEEKKEEVKTEEKSLEAETKEEEKSAAPATVETKKEEILAAPAPIVAETKKEETPVAPAPVETKPAAPVVAETKKEEILPAAPVTTETKVEEKVVPVETTPAAPVTTETKEEEKAAPVTTETKEEEKAAPGETKKEEKATASTQVKRASKFIKDIFVSVTTSEKKKEEEKPAVVTIEKAFAADQEEETKTVEAVEESIVSITLPETAAYVEPEEVSIWGIPLLEDERSDVILLKFLRARDFKVKEAFTMLKNTVQWRKENKIDDLVSEDLEGSEFEKLVFTHGVDKQGHVVIYSSYGEFQNKEIFSDKEKLSKFLKWRIQFQEKCVRSLDFSPEAKSSFVFVSDFRNAPGLGQRALWQFIKRAVKQFEDNYPEFVAKELFINVPWWYIPYYKTFGSIITSPRTRSKMVLSGPSKSAETIFKYVAPEVVPVKYGGLSKDSPFTVEDGVTEAVVKSTSKYTIDLPATEGSTLSWELRVLGADVSYGAQFEPSNEASYTVIVSKNRKVGLTDEPVITDSFKASEAGKVVITIDNQTFKKKKVLYRSKTQA
For the molecule B1, the binding result is reported as “binds”.
